# In paper PMC6294567, “The C-terminal D/E-rich domain of MBD3 is a putative Z-DNA mimic that competes for Zα DNA-binding activity” (Nucleic Acids Research, 2018):
# Assay: Gel filtration (SEC) oligomeric state of MBD3 proteins
# Conditions: gel filtration against protein standards
row,Molecule,oligomeric state
1,MBD3: full-length human MBD3; residue 1–291 (protein) MERKRWECPALPQGWEREEVPRRSGLSAGHRDVFYYSPSGKKFRSKPQLARYLGGSMDLSTFDFRTGKMLMSKMNKSRQRVRYDSSNQVKGKPDLNTALPVRQTASIFKQPVTKITNHPSNKVKSDPQKAVDQPRQLFWEKKLSGLNAFDIAEELVKTMDLPKGLQGVGPGCTDETLLSAIASALHTSTMPITGQLSAAVEKNPGVWLNTTQPLCKAFMVTDEDIRKQEELVQQVRKRLEEALMADMLAHVEELARDGEAPLDKACAEDDDEEDEEEEEEEPDPDPEMEHV,appeared to form a dimer in gel filtration
2,"MBDDE: MBD domain of MBD3 connected to the acidic tail; residues 263–291 (protein, left off: His6, N-terminal, cleaved) MERKRWECPALPQGWEREEVPRRSGLSAGHRDVFYYSPSGKKFRSKPQLARYLGGSMDLSTFDFRTGKMLMSDKACAEDDDEEDEEEEEEEPDPDPEMEHV",dimeric form
3,"MBD domain: MBD domain of MBD3; residues 1–72 (protein, left off: His6, N-terminal, cleaved) MERKRWECPALPQGWEREEVPRRSGLSAGHRDVFYYSPSGKKFRSKPQLARYLGGSMDLSTFDFRTGKMLMS",monomer
